By Kd is commonly meant the concentration at which binding is half-saturated.

In series [1] the target is T1, HMGA1a (Δ50-91) (human) (UniProt P17096).
T1 sequence (looked up): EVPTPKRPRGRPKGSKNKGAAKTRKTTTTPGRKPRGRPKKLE
As to the kind of experiment: SPR. As to conditions: K2, secondary site of two-site fit, likely nonspecific binding to hairpin loop; SPR (Biacore X-100), HEPES 1 buffer: 10 mM HEPES, 3 mM EDTA, 200 mM NaCl, 0.05% P-20, pH 7.4, 25 C; recombinant protein; residues 50-91; label: 5'-biotin; folded or branched DNA.

Series [2] has as its target T2, HMGB1 box A and box B (rat) (UniProt P63159).
T2 sequence (looked up): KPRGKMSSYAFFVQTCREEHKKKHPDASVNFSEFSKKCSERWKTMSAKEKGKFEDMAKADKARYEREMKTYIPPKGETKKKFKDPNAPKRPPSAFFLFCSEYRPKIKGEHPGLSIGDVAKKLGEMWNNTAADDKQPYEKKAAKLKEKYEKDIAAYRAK
As to the kind of experiment: SPR. The conditions noted are these: K2, secondary site of two-site fit, likely nonspecific binding to hairpin loop; SPR (Biacore X-100), HEPES 1 buffer: 10 mM HEPES, 3 mM EDTA, 200 mM NaCl, 0.05% P-20, pH 7.4, 25 C; recombinant protein; residues 8-165; label: 5'-biotin; folded or branched DNA. (SPR reads the build-up and loss of mass on a sensor chip optically.)

The exact form of at least one protein or probe is not confirmed. Where a protein sequence is shown, tags need not be part of it.

Consider “GGGGAATAATCGCGATTATTCCCCAATAATCGCGATTATT [AATAAT_ATTATT hairpin]”, for which the values for the dissociation constant (Kd) in series [1] and in series [2] were 11.3 µM and 5.91 µM, respectively.

The record behind these values is article PMC5737332.
